Measurements: publication PMC5550843
No constants are given. Whether binding was seen depends on the method and setting. In cells and extracts the contact can be indirect. A result given as binding can be weak or reduced; the word gives no strength.

Chains of the proteins cited; added tags and fusions are not shown. Lines headed by an entry give the natural chain unless they say otherwise; changes in a name come on top.
UniProt Q8VCX5: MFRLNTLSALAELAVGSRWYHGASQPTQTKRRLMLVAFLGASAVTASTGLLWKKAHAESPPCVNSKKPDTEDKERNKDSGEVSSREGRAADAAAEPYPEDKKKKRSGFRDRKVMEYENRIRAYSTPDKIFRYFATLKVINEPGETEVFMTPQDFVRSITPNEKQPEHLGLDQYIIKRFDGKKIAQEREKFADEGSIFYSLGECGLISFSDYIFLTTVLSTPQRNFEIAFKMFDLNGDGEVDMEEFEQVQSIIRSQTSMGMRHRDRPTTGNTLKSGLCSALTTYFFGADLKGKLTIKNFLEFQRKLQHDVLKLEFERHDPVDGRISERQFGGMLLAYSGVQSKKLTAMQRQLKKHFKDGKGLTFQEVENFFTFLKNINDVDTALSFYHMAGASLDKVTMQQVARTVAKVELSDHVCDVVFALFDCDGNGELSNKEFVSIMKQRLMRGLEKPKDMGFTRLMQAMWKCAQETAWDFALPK

Biological target: mitochondrial Ca2+ uptake 1 (MICU1) (mouse (endogenous in C57BL6/J heart)) (UniProt Q8VCX5)
Experiment: co-IP; MICU1 antibody bound to protein A/G Plus Agarose; diluted mouse myocardial extracts, 4 °C for 2 h; IP buffer 150 mM NaCl, 1.5 mM MgCl2, 1 mM EGTA, 20 mM HEPES pH 7.4, 1% NP40; western blot for MICU1 and Tom70

B1: Tom70 (protein, UniProt Q9CZW5 1-611)
chain: MAASKPIEAAMAAAAAPGSGNGVGGGGGTAGPGSGAGTLPRWHVALAIGAPLLLGAGAMYLWSRRRRRREAGGRGDASGLKRNSERKTPEGRASPALGSGHHDGSGDSLEMSSLDRAQAAKNKGNKYFKAGKYEQAIQCYTEAISLCPTEKNVDLSTFYQNRAAAFEQLQKWKEVAQDCTKAVELNPKYVKALFRRAKAHEKLDNKKECLEDVTAVCILEGFQNEQSMLLADKVLKLLGKENAKEKYKNREPLMPSPQFIKSYFSSFTDDIISQPMLKGEKSDEDKDKEGEALEVKENSGYLKAKQYMEEENYDKIISECSKEIDAQGKYMAEALLLRATFYLLIGSANAAKPDLDKVISLKEANVKLRANALIKRGTMCMQQQQPMLSTQDFNMAAEIDPMNSDVYHHRGQLKILLDLVEEAVADFDACIRLRPKFALAQAQKCFALYRQAYTANNSSQVQAAMKGFEEIIKKFPRCAEGYALYAQALTDQQQFGKADEMYDKCIDLEPDNATTYVHKGLLQLQWKQDLDKGLELISKAIEIDNKCDFAYETMGTIEVQRGNMEKAIDMFNKAINLAKSEMEMAHLYSLCDAAHAQTEVAKKYGLKPPTL
**Q.** How did the binding turn out when B1 was run?
**A.** binds
